Test results as given in patent publication US8604206B2, “Compositions for preventing and/or treating degenerative disorders of the central nervous system” (Amicus Therapeutics, Inc., priority 2009, dated 2013).

Experiment: Compound concentration in tissue of mice of the GCase enhancement study
Format: in vivo, mouse
Conditions: brain
Method: The dosing solutions were prepared in water. Compounds were administered over 2 weeks as follows: week 1, Mon-Fri (On), Sat-Sun (Off); week 2, Mon-Thu (On); necropsy on Friday.
Plasma was collected by spinning blood at 2700 g for 10 minutes at 4° C. Liver, spleen, lung, and brain tissues were removed, washed in cold PBS, blotted dry, flash frozen on dry ice, and stored at −80° C. until analysis. GCase levels were measured by homogenizing approximately 50 mg tissue in 500 μL McIlvane (MI) buffer (100 mM sodium citrate, 200 mM sodium phosphate dibasic, 0.25% sodium taurocholate, and 0.1% Triton X-100, pH 5.2) at pH 5.2 for 3-5 seconds on ice with a micro homogenizer. Homogenates were then incubated at room temperature without and with 2.5 mM conduritol-B-epoxide (CBE) for 30 min. Finally, 3.7 mM 4-methylumbeliferryl-β-glucoside (4-MUG) substrate was added and incubated at 37° C. for 60 min. […] Fluorescence was measured on a plate reader for 1 sec/well using 355 nm excitation and 460 nm emission. Total protein was determined in lysates using the MicroBCA kit according to the manufacturer's instructions. A 4-methylumbelliferone (4-MU) standard curve ranging from 1.0 nM to 50 μM was run in parallel for conversion of raw fluorescence data to absolute GCase activity (in the presence and absence of CBE) and expressed as nanomoles of 4-MU released per milligram of protein per hour (nmol/mg protein/hr). GCase levels and protein levels were calculated using Microsoft Excel (Redmond, Wash.) and GraphPad Prism version 4.02.

With `CC[C@@H](F)[C@H]1CNC[C@@H](O)[C@@H]1O.Cl` [(3R,4R,5S)-5-((R)-1-fluoropropyl)-piperidine-3,4-diol hydrochloride] the “Compound concentration in GCase assay (μM)” value (10 mg/kg FBE p.o.) was “BLQ” and the “Compound concentration in GCase assay” value (100 mg/kg FBE p.o.) was 0.0001 µM.
For `Cl.O[C@H]1[C@H](O)CNC[C@@H]1C(F)F` [Cmpd 6, (3R,4R,5S)-5-(Difluoromethyl)piperidine 3,4-diol Hydrochloride], the “Compound concentration in GCase assay” value (10 mg/kg FBE p.o.) was 0.0002 µM and the “Compound concentration in GCase assay” value (100 mg/kg FBE p.o.) was 0.0010 µM.
